Results reported in patent US12692257B2, “2,4,6-tri-substituted pyrimidine compounds as ATR kinase inhibitors” (BEIJING TIDE PHARMACEUTICAL CO., LTD., priority 2020, dated 2026).
Structures were worked out from names or drawings and are uncertain.

By UniProt entry, the sequences of proteins in these tests, tags left out.
UniProt Q13535, whole entry: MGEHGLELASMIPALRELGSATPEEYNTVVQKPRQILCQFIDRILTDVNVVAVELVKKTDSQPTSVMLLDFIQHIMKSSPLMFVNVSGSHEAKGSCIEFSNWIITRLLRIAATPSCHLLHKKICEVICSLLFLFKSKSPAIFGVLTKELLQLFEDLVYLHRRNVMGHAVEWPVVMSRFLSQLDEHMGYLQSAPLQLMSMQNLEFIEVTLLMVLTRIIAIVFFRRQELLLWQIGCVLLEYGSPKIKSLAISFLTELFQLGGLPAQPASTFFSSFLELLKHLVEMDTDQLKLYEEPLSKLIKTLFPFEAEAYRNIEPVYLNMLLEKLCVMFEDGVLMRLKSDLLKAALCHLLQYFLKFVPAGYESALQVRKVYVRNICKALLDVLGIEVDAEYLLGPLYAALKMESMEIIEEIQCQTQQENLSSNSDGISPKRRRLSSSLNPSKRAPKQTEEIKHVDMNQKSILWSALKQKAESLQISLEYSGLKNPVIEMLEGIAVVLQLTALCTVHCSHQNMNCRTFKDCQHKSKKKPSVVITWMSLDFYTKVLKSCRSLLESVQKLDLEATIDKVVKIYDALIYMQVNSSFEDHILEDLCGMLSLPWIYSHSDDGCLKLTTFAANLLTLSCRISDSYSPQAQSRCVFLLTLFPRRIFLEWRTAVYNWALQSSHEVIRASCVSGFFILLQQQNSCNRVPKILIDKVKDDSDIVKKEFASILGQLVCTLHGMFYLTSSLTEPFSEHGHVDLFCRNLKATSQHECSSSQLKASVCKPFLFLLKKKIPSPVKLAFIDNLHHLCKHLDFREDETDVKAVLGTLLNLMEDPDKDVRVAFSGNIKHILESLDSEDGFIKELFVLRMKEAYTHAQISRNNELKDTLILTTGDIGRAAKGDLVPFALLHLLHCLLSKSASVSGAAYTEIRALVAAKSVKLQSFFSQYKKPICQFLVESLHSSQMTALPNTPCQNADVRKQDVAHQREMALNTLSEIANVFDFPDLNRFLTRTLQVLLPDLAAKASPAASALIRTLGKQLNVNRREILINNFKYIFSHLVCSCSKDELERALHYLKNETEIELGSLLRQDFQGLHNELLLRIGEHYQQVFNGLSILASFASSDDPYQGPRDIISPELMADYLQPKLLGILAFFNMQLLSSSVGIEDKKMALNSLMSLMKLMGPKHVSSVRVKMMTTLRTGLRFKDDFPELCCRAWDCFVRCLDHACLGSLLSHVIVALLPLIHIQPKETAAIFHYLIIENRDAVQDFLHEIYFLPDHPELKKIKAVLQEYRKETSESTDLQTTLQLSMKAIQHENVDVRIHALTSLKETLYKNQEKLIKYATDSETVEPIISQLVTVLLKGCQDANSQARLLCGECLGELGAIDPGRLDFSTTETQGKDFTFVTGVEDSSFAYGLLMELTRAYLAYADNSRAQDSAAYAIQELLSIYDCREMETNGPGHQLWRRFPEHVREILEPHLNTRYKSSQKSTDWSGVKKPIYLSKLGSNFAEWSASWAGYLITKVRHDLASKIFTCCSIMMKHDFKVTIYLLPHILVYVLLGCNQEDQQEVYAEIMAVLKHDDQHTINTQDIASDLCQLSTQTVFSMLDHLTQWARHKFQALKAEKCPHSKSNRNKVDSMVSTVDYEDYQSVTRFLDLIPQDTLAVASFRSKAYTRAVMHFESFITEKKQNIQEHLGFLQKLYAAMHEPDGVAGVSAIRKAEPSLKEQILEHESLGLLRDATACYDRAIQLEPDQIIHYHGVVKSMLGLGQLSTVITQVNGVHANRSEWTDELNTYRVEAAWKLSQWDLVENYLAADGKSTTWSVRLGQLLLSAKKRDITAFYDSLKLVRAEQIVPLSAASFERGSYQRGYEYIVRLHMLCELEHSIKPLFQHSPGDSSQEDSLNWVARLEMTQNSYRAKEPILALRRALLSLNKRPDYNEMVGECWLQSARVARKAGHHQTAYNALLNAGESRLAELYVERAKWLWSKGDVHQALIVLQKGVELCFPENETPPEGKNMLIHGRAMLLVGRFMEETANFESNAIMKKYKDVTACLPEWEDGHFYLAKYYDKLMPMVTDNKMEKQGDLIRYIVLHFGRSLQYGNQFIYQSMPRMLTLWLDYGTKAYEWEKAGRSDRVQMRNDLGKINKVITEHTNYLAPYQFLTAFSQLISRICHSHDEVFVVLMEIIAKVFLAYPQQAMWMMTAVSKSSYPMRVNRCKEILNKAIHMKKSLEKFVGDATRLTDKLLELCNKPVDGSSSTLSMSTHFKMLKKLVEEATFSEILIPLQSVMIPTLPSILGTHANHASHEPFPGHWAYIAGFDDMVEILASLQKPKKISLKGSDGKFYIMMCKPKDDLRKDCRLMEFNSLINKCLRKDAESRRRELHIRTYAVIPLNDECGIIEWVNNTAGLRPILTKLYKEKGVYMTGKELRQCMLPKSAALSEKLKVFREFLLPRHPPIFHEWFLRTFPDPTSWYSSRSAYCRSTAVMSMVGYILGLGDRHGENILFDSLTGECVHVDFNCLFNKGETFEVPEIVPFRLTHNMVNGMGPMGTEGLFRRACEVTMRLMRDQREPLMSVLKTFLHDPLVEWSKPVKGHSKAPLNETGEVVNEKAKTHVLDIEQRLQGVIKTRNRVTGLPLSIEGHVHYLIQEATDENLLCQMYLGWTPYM
UniProt Q8WXE1, whole entry partner: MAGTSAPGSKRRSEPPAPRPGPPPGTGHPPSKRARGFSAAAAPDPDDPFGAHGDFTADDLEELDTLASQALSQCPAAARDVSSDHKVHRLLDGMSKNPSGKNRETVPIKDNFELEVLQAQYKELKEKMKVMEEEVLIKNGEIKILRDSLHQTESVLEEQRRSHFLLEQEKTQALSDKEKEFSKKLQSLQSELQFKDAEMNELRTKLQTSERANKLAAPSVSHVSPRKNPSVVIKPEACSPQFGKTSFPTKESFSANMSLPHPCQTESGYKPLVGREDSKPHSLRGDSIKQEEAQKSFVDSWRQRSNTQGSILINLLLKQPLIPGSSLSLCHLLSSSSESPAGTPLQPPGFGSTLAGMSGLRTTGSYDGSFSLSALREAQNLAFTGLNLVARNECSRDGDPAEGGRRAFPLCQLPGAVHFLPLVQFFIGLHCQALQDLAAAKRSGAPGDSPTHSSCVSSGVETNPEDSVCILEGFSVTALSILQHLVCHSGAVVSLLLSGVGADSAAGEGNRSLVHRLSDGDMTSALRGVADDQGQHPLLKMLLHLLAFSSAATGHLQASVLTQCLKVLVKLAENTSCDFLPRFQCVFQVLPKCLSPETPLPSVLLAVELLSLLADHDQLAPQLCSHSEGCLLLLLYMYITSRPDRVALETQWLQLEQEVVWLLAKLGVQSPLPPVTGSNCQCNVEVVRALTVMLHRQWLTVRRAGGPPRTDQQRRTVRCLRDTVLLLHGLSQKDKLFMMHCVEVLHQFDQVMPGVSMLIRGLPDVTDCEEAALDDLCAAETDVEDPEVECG

How the values were obtained:
ATR kinase = ATR kinase (Homo sapiens, UniProt Q13535); experiment: Assay of ATR kinase activity (time-resolved fluorescence, phosphorylation of p53-derived protein); details: read-out: ATR/IC50/nM; tested form: TFA salt
Description: Biotinylated protein derived from p53 (Eurofins, art. No.: 14-952) was phosphorylated with ATR kinase. The amount of phosphorylated protein was determined by time-resolved fluorescence in this assay. The amount of phosphorylated protein was detected by anti-p53-phospho-(serine 15)-K-specific antibody (Cisbio, art. No.: 61GSTDLA) and d2 labeled anti-GST antibody (Cisbio, art. No. 61P08KAE). Before the assay, the following working solutions were formulated as required: 1×reaction buffer (20 mM HEPES PH8.0, 1% glycerol, 0.01% Brij-35), dilution buffer (20 mM HEPES PH8.0, 1% glycerol, 0.01% Brij-35, 5 mM DTT and 1% BSA), stop solution (20 mM HEPES PH8.0, 1% glycerol, 0.01% Brij-35, 250 mM EDTA), detection buffer (50 mM HEPES pH7.0, 150 mM NaCl, 267 mM KF, 0.1% sodium cholate, 0.01% Tween-20, 0.0125% sodium azide). […]
4× serially diluted compound solutions were prepared with 1× reaction buffer to give 9 compound solutions with different concentrations, and 2.5 μL of the 4× serially diluted compound solutions were added to a 384-well analysis plate (784075, Greiner). […] The fluorescence signal was detected with ENVISION (Perkinelmer) instrument (excitation wavelength: 320 nm, emission wavelength: 665 nm and 615 nm). […] IC50 values of compounds were calculated by standard software for parameter fitting (GraphPad Prism 6.0).

TOV21G (ovarian cancer) = experiment: Cell proliferation inhibition in vitro, CellTiter-Glo, TOV21G; type: cell-based, human; details: read-out: TOV21G/IC50/μM, TOV21G cells, 120 hours, tested form: TFA salt
Description: (§1) By detecting the effect of compounds on cell activity in vitro in tumor cell lines TOV21G (ovarian cancer) and MV4-11 (leukemia), the inhibitory effect of compounds on cell proliferation was studied in this assay.
(§2) TOV21G cells and MV4-11 cells were purchased from American Type Culture Collection (ATCC).
TOV21G cells were cultured in MCDB105/M199 medium (containing 15% of FBS), and used for assaying when the cell confluence reached 85% or more. About 1000 cells were inoculated in each well of a 96-well culture plate, and cultured for 24 hours. Different concentrations (0-10 μM) of compounds to be assayed were added to treat the cells. Each group was assayed in triplicate. Blank wells (containing medium only) and control wells (inoculated cells without being treated with drug) were set. Cells were cultured for 120 hours. 40 μL of Cell Titer-Glo solutions (Promega, #G7573) were added to each well, and the cells were incubated with shaking for 20 min in the dark. 100 μL of solution was transferred from each well to a 96-well blank plate (Corning, #3917), and the luminescence value was read by Biotek Synergy H1 multifunctional microplate reader.

MV4-11 (leukemia) = experiment: Cell proliferation inhibition in vitro, CellTiter-Glo, MV4-11; type: cell-based, human; details: read-out: MV4-11/IC50/μM, MV4-11 cells, 120 hours, tested form: TFA salt
Description: as §1, §2
MV-4-11 cells were cultured in IMDM medium (containing 20% of FBS). About 10,000 cells were inoculated in each well of a 96-well culture plate, and treated by adding different concentrations (0-10 μM) of compounds to be assayed. Each group was assayed in triplicate. Blank wells (containing medium only) and control wells (inoculated cells without being treated with drug) were set. Cells were cultured for 120 hours. 40 μL of Cell Titer-Glo solutions were added to each well, and the cells were incubated with shaking for 20 min in the dark. 100 μL of solution was transferred from each well to a 96-well blank plate, and the luminescence value was read by Biotek Synergy HI multifunctional microplate reader. Inhibition rate (%)=100%×(control well−assay well)/(control well−blank well)

Cc1nn(-c2ccccc2)c(C)c1-c1cc(N2CCOC[C@H]2C)nc(-c2cc(F)cc3[nH]ccc23)n1
IC50 (ATR kinase): 29 nM
IC50 (TOV21G (ovarian cancer)): 0.726 µM
IC50 (MV4-11 (leukemia)): 1.41 µM
